Test results: US8084602B2, “Porphyrin derivatives and their use in photodynamic therapy” (Destiny Pharma Limited, priority 2002, dated 2011)

System: E. coli cells
Assay: Binding of compounds with bacterial cells
Assay type: cell-based
Settings: 5 min incubation

SMILES: CN(C)CCC[N+](C)(C)CCCOc1ccc(-c2c3nc(cc4ccc([nH]4)c(-c4ccc(OCCC[N+](C)(C)CCCN(C)C)cc4)c4nc(cc5ccc2[nH]5)C=C4)C=C3)cc1.[Cl-].[Cl-] [Compound 8, 5,15-bis-(4-{3-[(3-Dimethylamino-propyl)-dimethylammonio]-propyloxy}-phenyl)-porphyrin dichloride]
- Bound compound (nmoles/mg cell proteins) (0.01 μM, 0 washings): 0.024 ± 0.01 nmoles/mg cell proteins
- Bound compound (nmoles/mg cell proteins) (0.01 μM, 3 washings): 0.009 ± 0.001 nmoles/mg cell proteins
- Bound compound (nmoles/mg cell proteins) (0.1 μM, 0 washings): 0.056 ± 0.02 nmoles/mg cell proteins
- Bound compound (nmoles/mg cell proteins) (0.1 μM, 3 washings): 0.030 ± 0.02 nmoles/mg cell proteins
- Bound compound (nmoles/mg cell proteins) (0.5 μM, 0 washings): 0.522 ± 0.2 nmoles/mg cell proteins
- Bound compound (nmoles/mg cell proteins) (0.5 μM, 3 washings): 6.274 ± 0.15 nmoles/mg cell proteins
- Bound compound (nmoles/mg cell proteins) (1 μM, 0 washings): 3.670 ± 0.7 nmoles/mg cell proteins
- Bound compound (nmoles/mg cell proteins) (1 μM, 3 washings): 2.230 ± 0.8 nmoles/mg cell proteins
